# Reference: US8517736B2, “Method for alleviating the undesired side effects of dental bleaching” (Dr. Gunnar Rolla Consultant AS, priority 2011, dated 2013)
# Assay: SEM micrographs of bleached human tooth enamel surface
SMILES,"enamel surface appearance after calcium hydroxide treatment (SEM, FIG. 2) (bleached tooth of FIG. 1, Ca(OH)2 solution allowed to dry)","loss of mineral on the tooth surface after subsequent NaF treatment (SEM, FIG. 3) (tooth of FIG. 2 (Ca(OH)2 film) subsequently treated with 2% by weight NaF solution)"
"[Ca+2].[OH-].[OH-] [Ca(OH)2, calcium hydroxide]",covered with a dehydrated film,–
[F-].[Na+] [NaF],–,has been eliminated
